Results deposited as PubChem BioAssay AID1508597 (Cure First, 2020)
Shown is a random part of the about 2,100 reagents, in one setting of the screen. 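Calls flag viability under 80% in either arm, not effects specific to rucaparib; the reference for percent is not stated.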 A reagent listed more than once was tested more than once; the source does not tell the runs apart. The record does not give: the 100% reference.

Purpose: 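Knock-downs altering ovarian cancer cell survival with or without PARP inhibitor rucaparib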 (primary screen)
Cell system: human ovarian carcinoma lines grown from tumours: OCI-P5x (papillary serous) and OCI-C5x (clear cell)
Reagent: siRNA pool against human genes, 1.25 pmol siRNA per well
Duration: 72 h or 96 h, depending on the cell culture
Conditions: rucaparib 20 µM (about IC30) or vehicle, present until read-out
Rucaparib or vehicle: Vehicle
Cell line: OCI-C5x (clear cell)
Measurement: 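Luminescent ATP-based viability assay read 72 or 96 h after transfection, depending on culture, given as normalised percent viability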
Scale: viability, normalised: higher = more viable cells remaining
Active means: 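Active when normalised viability falls below 80 percent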
Meaning of the calls: active = viability under 80%; inactive = viability 80% or more

STK40, technical replicate 1 → viability, normalised (%): 62.8; call: active
STK40, technical replicate 2 → viability, normalised (%): 50.7; call: active
STK40, technical replicate 3 → viability, normalised (%): 41.2; call: active
PARP6, technical replicate 1 → viability, normalised (%): 28.8; call: active
PARP6, technical replicate 2 → viability, normalised (%): 20.4; call: active
PARP6, technical replicate 3 → viability, normalised (%): 27.4; call: active
GNRHR, technical replicate 1 → viability, normalised (%): 52.6; call: active
GNRHR, technical replicate 2 → viability, normalised (%): 42.7; call: active
GNRHR, technical replicate 3 → viability, normalised (%): 53.1; call: active
RLF, technical replicate 1 → viability, normalised (%): 44.6; call: active
RLF, technical replicate 2 → viability, normalised (%): 38.1; call: active
RLF, technical replicate 3 → viability, normalised (%): 40; call: active
TXK, technical replicate 1 → viability, normalised (%): 47; call: active
TXK, technical replicate 1 → viability, normalised (%): 57; call: active
TXK, technical replicate 2 → viability, normalised (%): 68.6; call: active
TXK, technical replicate 2 → viability, normalised (%): 52.4; call: active
TXK, technical replicate 3 → viability, normalised (%): 42.5; call: active
TXK, technical replicate 3 → viability, normalised (%): 52.8; call: active
MRE11, technical replicate 1 → viability, normalised (%): 67.8; call: active
MRE11, technical replicate 2 → viability, normalised (%): 50.4; call: active
MRE11, technical replicate 3 → viability, normalised (%): 38.6; call: active
ERCC8, technical replicate 1 → viability, normalised (%): 64.6; call: active
ERCC8, technical replicate 2 → viability, normalised (%): 75.1; call: active
ERCC8, technical replicate 3 → viability, normalised (%): 62; call: active
FANCE, technical replicate 1 → viability, normalised (%): 56.2; call: active
FANCE, technical replicate 2 → viability, normalised (%): 46.2; call: active
FANCE, technical replicate 3 → viability, normalised (%): 49; call: active
ENPP4, technical replicate 1 → viability, normalised (%): 38.6; call: active
ENPP4, technical replicate 2 → viability, normalised (%): 39.7; call: active
ENPP4, technical replicate 3 → viability, normalised (%): 39.6; call: active
CBX6, technical replicate 1 → viability, normalised (%): 53.7; call: active
CBX6, technical replicate 2 → viability, normalised (%): 41.7; call: active
CBX6, technical replicate 3 → viability, normalised (%): 51.5; call: active
RIOX2, technical replicate 1 → viability, normalised (%): 48.2; call: active
RIOX2, technical replicate 2 → viability, normalised (%): 47.6; call: active
RIOX2, technical replicate 3 → viability, normalised (%): 51.2; call: active
POLR2K, technical replicate 1 → viability, normalised (%): 41.5; call: active
POLR2K, technical replicate 2 → viability, normalised (%): 43.7; call: active
POLR2K, technical replicate 3 → viability, normalised (%): 49.2; call: active
HNRNPAB, technical replicate 1 → viability, normalised (%): 51.2; call: active
HNRNPAB, technical replicate 2 → viability, normalised (%): 61.3; call: active
HNRNPAB, technical replicate 3 → viability, normalised (%): 43.2; call: active

A portion taken from the entries so far, as a working copy:
HNRNPAB, technical replicate 1 → viability, normalised (%): 51.2; call: active
HNRNPAB, technical replicate 2 → viability, normalised (%): 61.3; call: active
HNRNPAB, technical replicate 3 → viability, normalised (%): 43.2; call: active
